Article PMC7067851, “Formation of pre-pore complexes of pneumolysin is accompanied by a decrease in short-range order of lipid molecules throughout vesicle bilayers” (Scientific Reports, 2020)
These are yes or no findings as the source states them, for the method shown.

Sequences of proteins named here, by UniProt entry; tags and fusion partners are left off. A change or cut given only in a name is not applied to a line headed by its entry.
UniProt Q04IN8, whole entry, looked up, stated change not applied: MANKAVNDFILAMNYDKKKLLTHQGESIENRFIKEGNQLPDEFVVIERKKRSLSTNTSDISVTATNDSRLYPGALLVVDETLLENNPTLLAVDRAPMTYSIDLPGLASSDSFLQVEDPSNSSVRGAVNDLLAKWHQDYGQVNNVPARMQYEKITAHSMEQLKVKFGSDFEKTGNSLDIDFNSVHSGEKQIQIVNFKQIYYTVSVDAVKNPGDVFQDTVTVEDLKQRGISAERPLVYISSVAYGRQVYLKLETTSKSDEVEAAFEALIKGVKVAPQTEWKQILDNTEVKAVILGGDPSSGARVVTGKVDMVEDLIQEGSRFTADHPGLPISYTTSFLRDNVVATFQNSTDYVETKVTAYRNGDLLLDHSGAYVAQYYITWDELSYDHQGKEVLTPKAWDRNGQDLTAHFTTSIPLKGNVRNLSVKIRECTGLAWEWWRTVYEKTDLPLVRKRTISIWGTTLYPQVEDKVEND

Biological target: pneumolysin point mutant N339R (Streptococcus pneumoniae) (UniProt Q04IN8)
Assay: negative-stain transmission electron microscopy; protein incubated with unilamellar liposomes (1:1 POPC/chol), stained with 1% w/v uranyl acetate on a copper grid; membrane-bound oligomeric structures visualised; both purified

Substance: pneumolysin point mutant N339R (from UniProt Q04IN8 1-471)
- binding: no binding
